Results taken from US5833994.
At least one result comes from cells or an extract, where the contact may be indirect.

Chains of the proteins cited; added tags and fusions are not shown. A line that says so, or that is headed by a name, gives the form on record, which may keep a tag or linker.
Ah receptor/ARNT heterodimer (TCDD-transformed, liver cytosol) (Cavia porcellus (guinea pig)), one chain, as listed by the source, chain 2 of 2: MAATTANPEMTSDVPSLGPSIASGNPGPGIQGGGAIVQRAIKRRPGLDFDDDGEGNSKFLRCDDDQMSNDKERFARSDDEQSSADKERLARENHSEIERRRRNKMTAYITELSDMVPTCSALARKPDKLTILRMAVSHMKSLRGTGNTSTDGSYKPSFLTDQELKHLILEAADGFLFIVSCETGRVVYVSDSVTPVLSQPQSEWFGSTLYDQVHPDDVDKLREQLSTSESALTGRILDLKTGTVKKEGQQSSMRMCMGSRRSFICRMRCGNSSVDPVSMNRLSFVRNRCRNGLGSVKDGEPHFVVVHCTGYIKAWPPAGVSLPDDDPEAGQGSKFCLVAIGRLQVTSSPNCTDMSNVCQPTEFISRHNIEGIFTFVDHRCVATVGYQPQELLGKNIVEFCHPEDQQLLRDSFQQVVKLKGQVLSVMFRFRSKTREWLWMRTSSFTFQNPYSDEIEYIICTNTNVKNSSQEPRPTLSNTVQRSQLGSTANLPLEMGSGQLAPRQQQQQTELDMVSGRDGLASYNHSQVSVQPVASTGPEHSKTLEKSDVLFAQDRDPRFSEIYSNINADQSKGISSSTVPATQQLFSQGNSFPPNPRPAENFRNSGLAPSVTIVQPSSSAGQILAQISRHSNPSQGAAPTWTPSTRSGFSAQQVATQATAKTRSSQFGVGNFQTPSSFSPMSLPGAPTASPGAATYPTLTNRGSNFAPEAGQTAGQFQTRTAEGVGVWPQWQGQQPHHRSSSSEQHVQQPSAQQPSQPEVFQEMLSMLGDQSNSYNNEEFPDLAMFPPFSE
Ah receptor/ARNT heterodimer (TCDD-transformed, liver cytosol) (Cavia porcellus (guinea pig)), one chain, as listed by the source, chain 1 of 2: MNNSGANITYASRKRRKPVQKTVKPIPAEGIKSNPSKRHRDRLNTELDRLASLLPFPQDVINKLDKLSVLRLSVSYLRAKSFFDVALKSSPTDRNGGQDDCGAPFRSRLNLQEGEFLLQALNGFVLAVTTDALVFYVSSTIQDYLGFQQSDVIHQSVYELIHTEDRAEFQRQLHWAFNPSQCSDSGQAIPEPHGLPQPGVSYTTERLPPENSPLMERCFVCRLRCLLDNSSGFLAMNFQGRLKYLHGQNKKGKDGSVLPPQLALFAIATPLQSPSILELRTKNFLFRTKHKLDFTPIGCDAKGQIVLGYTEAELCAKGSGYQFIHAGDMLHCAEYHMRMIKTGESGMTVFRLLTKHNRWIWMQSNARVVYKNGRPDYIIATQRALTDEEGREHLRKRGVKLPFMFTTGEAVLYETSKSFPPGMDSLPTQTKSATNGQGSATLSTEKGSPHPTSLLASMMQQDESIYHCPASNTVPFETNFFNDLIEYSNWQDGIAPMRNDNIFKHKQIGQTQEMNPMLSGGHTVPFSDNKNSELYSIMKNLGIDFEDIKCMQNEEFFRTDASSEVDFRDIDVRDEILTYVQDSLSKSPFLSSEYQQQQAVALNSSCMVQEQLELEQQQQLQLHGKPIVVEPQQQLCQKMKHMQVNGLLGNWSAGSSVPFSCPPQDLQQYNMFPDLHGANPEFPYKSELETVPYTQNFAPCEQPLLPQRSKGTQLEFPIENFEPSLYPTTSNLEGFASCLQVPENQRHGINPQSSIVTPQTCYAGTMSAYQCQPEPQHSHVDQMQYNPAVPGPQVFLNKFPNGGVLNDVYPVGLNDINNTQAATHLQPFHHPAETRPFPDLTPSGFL

Tested on: Ah receptor/ARNT heterodimer (TCDD-transformed, liver cytosol) (Cavia porcellus (guinea pig))
Test: binding assay
Settings: Example 2, 6 and 7; protein in an extract; label: 5'-biotin on SEQ:2 strand

GATCCGGAGTTGCGTGAGAAGAGCCA (double strand) [DRE (DRE-D / biotin-ERD duplex)]
binding result: binds
